PubChem BioAssay AID1439 (NMMLSC, 2008)
About 770 (0.35%) of roughly 220,000 compounds were called active. Inconclusive means that the source gave no clear call. Such entries were picked first, then a sample of the others. Cut-off read from the data, not from the text of the source: active = binding response below about 49% or above about 150%; inconclusive = no clear call, values can overlap the other calls; inactive = in between.

By UniProt entry, the sequences of proteins in these tests, tags left out.
UniProt P09471, whole entry, looked up: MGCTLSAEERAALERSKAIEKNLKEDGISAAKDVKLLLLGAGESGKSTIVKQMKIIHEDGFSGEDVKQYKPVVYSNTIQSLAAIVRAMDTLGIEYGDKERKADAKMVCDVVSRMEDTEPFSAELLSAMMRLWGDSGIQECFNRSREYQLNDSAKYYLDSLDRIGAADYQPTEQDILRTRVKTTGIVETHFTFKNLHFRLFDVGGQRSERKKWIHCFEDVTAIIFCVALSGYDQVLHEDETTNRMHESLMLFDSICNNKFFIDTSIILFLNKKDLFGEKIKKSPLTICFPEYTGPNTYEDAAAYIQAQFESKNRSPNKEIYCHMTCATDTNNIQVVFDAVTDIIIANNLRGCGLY

The compounds below were run against Guanine nucleotide-binding protein G(o) subunit alpha (Homo sapiens) (UniProt P09471) (assay: RGS7-Galphao binding modulators, primary screen, biochemical, multiplexed bead flow cytometry (AID 1439;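 note: fluorescent Galphao held in activated GDP-AlF4 state binding bead-coupled RGS7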)). Conditions: at 10 µM, actives lie on both sides.
In the case of Cc1ccc(C)c(C2NC(=O)c3ccccc3N2)c1 (stereo unspecified), the binding response (% of control) is reported as inconclusive: 122%.
For O=c1c(-c2ccc3c(c2)OCCO3)coc2cc(OC3OC(CO)C(O)C(O)C3O)ccc12 (stereo unspecified), the binding response (% of control) was inconclusive: 103%.
In the case of O=C(c1ccccc1)N1CCN(c2ccc([N+](=O)[O-])c(NCC3CCCO3)c2)CC1 (stereo unspecified), the binding response (% of control) is reported as inconclusive: 74.2%.
In the case of O=c1c(Cc2c(F)cccc2Cl)c(O)ccn1C1CCCCCC1, the binding response (% of control) is reported as inconclusive: 82.6%.
With COc1ccc(CCNC(=O)COC(=O)COc2ccc(C#N)cc2)cc1 the binding response (% of control) was inconclusive: 110%.
For CC(C)CN1CCC(CNC(=O)CCc2nnc(Cc3c[nH]c4ccccc34)o2)CC1, the binding response (% of control) was inactive: 98.7%.
With Cc1ccc(Cc2c(C)c(C#N)c3[nH]c4ccccc4n3c2=O)cc1 the binding response (% of control) was inconclusive: 277%.
In the case of O=C(O)COCC(=O)Nc1cc(C(F)(F)F)cc(C(F)(F)F)c1, the binding response (% of control) is reported as inconclusive: 126%.
In the case of CC(=O)c1ccc(NS(=O)(=O)c2ccc(N/C=C/C(=O)c3ccc(F)cc3)cc2)cc1, the binding response (% of control) is reported as inconclusive: 108%.
CC(C)Cn1cnc2c(c1=N)C(c1ccccc1)C1=C(CC(C)(C)CC1=O)O2 (stereo unspecified) was tested, and the binding response (% of control) was inconclusive: 99.2%.
With O=C(C1=C[C@H](C2CCCCC2)C[C@H](OCCCCO)O1)N1CCN(Cc2ccccc2)CC1 the binding response (% of control) was inactive: 96.7%.
C=CCNC(=O)NC(=O)COC(=O)c1ccccc1Sc1ccc(C(F)(F)F)cc1[N+](=O)[O-] was tested, and the binding response (% of control) was inactive: 103%.
In the case of CNC(=S)Nn1cnc2ccccc21, the binding response (% of control) is reported as inconclusive: 83%.
For Fc1cnc(Cl)nc1N1CCN(c2ccccc2)CC1, the binding response (% of control) was inconclusive: 201%.
With COc1cc(C(=O)NC(=S)NNC(=O)[C@H]2C[C@@H]2c2ccccc2)cc(OC)c1OC the binding response (% of control) was inconclusive: -121%.
O=C(COc1ccccc1)Nc1ncn[nH]1 was tested, and the binding response (% of control) was inconclusive: 102%.
With CCc1cc2c(=O)c(-c3nc4ccccc4[nH]3)coc2c(CN2CCCCC2)c1O the binding response (% of control) was inconclusive: 132%.
In the case of O=C(NC(=S)Nc1ccccc1[N+](=O)[O-])c1ccccc1, the binding response (% of control) is reported as inconclusive: 121%.
For CC(=O)/C(C#N)=C1\NC(=O)C(Cc2ccc(F)cc2)S1 (stereo unspecified), the binding response (% of control) was inconclusive: 34.5%.
Cc1oc(C(C)(C)C)cc1C(=O)N1CCN(C(c2ccccc2)c2ccccc2)CC1 was tested, and the binding response (% of control) was inconclusive: 95.6%.
With O=C(N/N=C/c1ccccn1)c1cc(-c2ccc(Br)cc2)nc2ccccc12 the binding response (% of control) was inconclusive: 71.3%.
For Cc1occc1C(=O)NNC(=O)Nc1ccc([N+](=O)[O-])cc1, the binding response (% of control) was inactive: 99%.
For O=C(Nc1ccc(-c2csc(Nc3cccc(C(F)(F)F)c3)n2)cc1)c1ccccc1, the binding response (% of control) was inconclusive: 133%.
For O=C(O)CCNC(=S)Nc1cccc(F)c1, the binding response (% of control) was inconclusive: 130%.
For Cc1cccc(N=C2NC(=O)/C(=C/c3cccnc3)S2)c1, the binding response (% of control) was inconclusive: 109%.
For Cc1cc(C)nc(-n2ncc3c2CC(c2cccc(Cl)c2)CC3=O)n1 (stereo unspecified), the binding response (% of control) was inactive: 96.8%.
In the case of CC(=O)Oc1ccc(N2C(=O)C3C4C=CC(C5CC45)C3C2=O)cc1[N+](=O)[O-] (stereo unspecified), the binding response (% of control) is reported as inactive: 97.7%.
COc1ccc(/C=N/NC(=O)c2ccc(COc3cccc4cccnc34)cc2)cc1O was tested, and the binding response (% of control) was inconclusive: -35.7%.
COc1cc(O)c(C(CC(=O)N2CCCC2)c2cc(OC)c(OC)c(OC)c2)c(OC)c1 (stereo unspecified) was tested, and the binding response (% of control) was inconclusive: 75.2%.
For COC(=O)C(NC(C)=O)(Nc1ccc(C)cn1)C(F)(F)F (stereo unspecified), the binding response (% of control) was inconclusive: 128%.
For O=C(CN1CCN(Cc2ccccc2Cl)CC1)N/N=C/C=C/c1ccco1, the binding response (% of control) was inconclusive: 87.8%.
COc1ccc(Cn2c(CCC(=O)Nc3ccc(C)cc3)nc3cccnc32)cc1 was tested, and the binding response (% of control) was inactive: 111%.
For Cc1ccc(N=CNc2ccc(C)cc2C)c(C)c1, the binding response (% of control) was inconclusive: 90.8%.
In the case of COc1ccc(NC(=O)O/N=C/c2c(C)nn(C(C)(C)C)c2C)cc1, the binding response (% of control) is reported as inconclusive: 92.5%.
With CCN1CC(CNCc2cn(-c3ccc(OC)cc3)nc2-c2ccccc2Cl)CC1=O (stereo unspecified) the binding response (% of control) was active: 38.9%.
CC1(OC(=O)CCc2ccccc2)C(=O)C=C2C=C(c3ccc(C#N)cc3)N(Cc3ccco3)C=C2C1=O (stereo unspecified) was tested, and the binding response (% of control) was inconclusive: 100%.
With CCNC(=S)N/N=C(\C)c1ccc2ccccc2c1 the binding response (% of control) was inconclusive: 110%.
CCN(CC)S(=O)(=O)c1ccc(N2CCOCC2)c(NC(=O)c2cnccn2)c1 was tested, and the binding response (% of control) was inactive: 101%.
For N/C(=N\S(=O)(=O)c1ccc(Cl)cc1)N1CCOCC1, the binding response (% of control) was inconclusive: 114%.
For CCOC(=O)c1cc(NC(=O)/C=C\C(=O)O)ccc1Cl, the binding response (% of control) was inconclusive: 85%.
In the case of NS(=O)(=O)c1ccc(N=Nc2c[nH]c(=O)c(O)c2)cc1, the binding response (% of control) is reported as inconclusive: 161%.
Cc1ccc(/C=C2\CCOC2=O)cc1 was tested, and the binding response (% of control) was inconclusive: 59.2%.
In the case of O=C(NCCc1ccc(Cl)cc1)Nc1ccc(Cl)cc1, the binding response (% of control) is reported as inconclusive: 87.8%.
In the case of O=C(NCCCN1CCCC1)C1CCN(C(=O)c2cc3sccc3n2Cc2ccc(F)cc2)CC1, the binding response (% of control) is reported as active: 181% [activator].
For COc1ccc(/C=C/C(=O)O)cc1S(=O)(=O)N1CCC(C)CC1, the binding response (% of control) was inconclusive: 104%.
For COc1ccc(CC(=O)NC(C)c2nnc(SCC(=O)Nc3ccccc3)n2C)cc1 (stereo unspecified), the binding response (% of control) was inconclusive: 111%.
In the case of O=C(CCl)NC1(C(F)(F)F)C(=O)Nc2c1c(=O)[nH]c(=O)n2-c1ccccc1 (stereo unspecified), the binding response (% of control) is reported as inconclusive: 72.2%.
O=C(NCc1ccccc1Cl)c1ccc(CSc2nc3ccncc3[nH]2)cc1 was tested, and the binding response (% of control) was inconclusive: 19%.
Cc1cccc(Cl)c1NC(=S)NN was tested, and the binding response (% of control) was inconclusive: 110%.
In the case of Fc1ccc(-n2c(Cn3nnc4ccccc43)n[nH]c2=S)cc1, the binding response (% of control) is reported as inconclusive: 85.2%.
With CC(=O)N(C(C)=O)c1ncnc2c1c(-c1ccc(Cl)cc1)nn2C(C)(C)C the binding response (% of control) was inconclusive: 111%.
With COc1cccc(OCc2cc(/C=N/n3cncn3)ccc2OC)c1 the binding response (% of control) was inconclusive: 120%.
With Cc1cc(C)n(NC(=S)NC2CCCC2)c(=O)c1C#N the binding response (% of control) was inconclusive: 127%.
With C=CCn1c(SCC2CCCCO2)nc2sc(CC)cc2c1=O (stereo unspecified) the binding response (% of control) was inconclusive: 57.1%.
With COc1ccccc1CNC(=O)C1CC(c2ccccc2[N+](=O)[O-])=NO1 (stereo unspecified) the binding response (% of control) was inactive: 107%.
With COc1ccc(C(C2C(=O)CC(C)(C)CC2=O)C2C(=O)CC(C)(C)CC2=O)cc1 the binding response (% of control) was inconclusive: 85.5%.
